Our source for the binding values is paper PMC10464189.

Amino acid sequences for entries named in this document (tags omitted).
UniProt Q93009: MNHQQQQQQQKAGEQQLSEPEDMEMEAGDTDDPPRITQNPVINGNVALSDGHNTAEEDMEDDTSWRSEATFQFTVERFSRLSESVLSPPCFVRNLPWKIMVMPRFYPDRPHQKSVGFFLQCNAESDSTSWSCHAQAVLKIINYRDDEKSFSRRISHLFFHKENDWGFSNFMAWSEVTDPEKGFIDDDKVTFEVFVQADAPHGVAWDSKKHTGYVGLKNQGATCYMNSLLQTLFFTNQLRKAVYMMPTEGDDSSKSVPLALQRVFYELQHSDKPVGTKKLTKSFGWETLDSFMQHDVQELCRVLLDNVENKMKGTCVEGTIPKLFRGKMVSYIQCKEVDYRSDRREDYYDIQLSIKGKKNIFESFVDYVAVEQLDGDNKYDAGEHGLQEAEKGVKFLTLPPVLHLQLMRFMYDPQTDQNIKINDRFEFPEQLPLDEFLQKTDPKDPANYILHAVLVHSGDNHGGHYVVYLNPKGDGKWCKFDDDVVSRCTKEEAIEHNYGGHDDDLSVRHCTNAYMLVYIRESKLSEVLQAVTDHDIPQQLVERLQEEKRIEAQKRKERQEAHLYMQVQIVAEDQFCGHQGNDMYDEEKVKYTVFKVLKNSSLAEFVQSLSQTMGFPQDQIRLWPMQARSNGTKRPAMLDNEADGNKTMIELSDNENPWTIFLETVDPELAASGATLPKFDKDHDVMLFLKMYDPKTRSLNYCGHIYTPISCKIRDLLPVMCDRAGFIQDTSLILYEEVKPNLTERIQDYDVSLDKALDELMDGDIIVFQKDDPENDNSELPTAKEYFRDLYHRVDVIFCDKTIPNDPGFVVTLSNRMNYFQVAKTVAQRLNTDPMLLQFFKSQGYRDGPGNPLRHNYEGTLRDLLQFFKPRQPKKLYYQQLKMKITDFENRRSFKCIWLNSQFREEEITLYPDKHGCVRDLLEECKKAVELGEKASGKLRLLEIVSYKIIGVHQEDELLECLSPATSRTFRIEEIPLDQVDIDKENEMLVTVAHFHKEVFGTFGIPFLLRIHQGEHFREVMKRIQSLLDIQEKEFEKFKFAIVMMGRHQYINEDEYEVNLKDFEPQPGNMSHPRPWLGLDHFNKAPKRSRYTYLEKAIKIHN

Results are given in words; binding and its absence hold for the method and conditions named. In cells and extracts the contact can be indirect. Some entries that bind do so weakly or less than the wild type.

For one experiment, the target named is Flag-tagged FTO (UniProt Q9C0B1). In words: co-IP; HEK 293 T cells transfected with Myc-USP7 and Flag-FTO plasmids; immunoprecipitation with anti-Myc or anti-Flag.
The target of experiment [1] is fat mass and obesity-associated protein (FTO), endogenous (human (endogenous in HEK 293 T and CFPAC-GM)) (UniProt Q9C0B1). In words: co-IP; endogenous proteins in HEK 293 T lysates; immunoprecipitation with an antibody to one partner, immunoblotting for the other, both directions. (In general: In western blotting, separated proteins are transferred to a membrane and probed.)

Experiment [2] has the same target. Put plainly: co-IP; CFPAC-GM cell lysates; primary antibody overnight at 4 C, protein G Dynabeads 1 h at room temperature (supplementary Figures S3, S4).

Regarding “Myc-tagged USP7 (from UniProt Q93009 1-1102) (enzyme)”, in the experiment with Flag-tagged FTO, the binding result is “binds”. Turning to “Ubiquitin-specific protease 7 (USP7), endogenous (from UniProt Q93009 1-1102) (enzyme)”, the binding result in experiment [1] and in experiment [2] was “binds” throughout.
